Measurements reported in PubChem BioAssay AID720505 (Drosophila RNAi Screening Center, 2013)
In all, the deposit lists about 20,000 reagents; below is a random part of those that have a named target and a result. Of all reagents, about 2,100 (10%) were called active. 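Raw plate signals without normalisation; calls rest on control-based scores that were not deposited; replicate 2 separates called from uncalled poorly.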 Not given: the amount of reagent, the time to read-out.

Purpose: 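Knock-downs that reduce calcium influx once internal stores are emptied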 (primary screen)
Cell system: Drosophila S2R+ cells
Reagents: long dsRNA against Drosophila genes
Conditions: thapsigargin (2 µM) in calcium-free buffer to empty internal stores, then 2 mM calcium added back
Measurement: 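Fluo-4 signal in 384-well plates read on a FLIPR after thapsigargin (2 µM, calcium-free) store depletion and 2 mM calcium add-back; unnormalised mean endpoint per well; screen run twice, selected wells retested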
Direction: calcium signal: higher = more calcium entry after store depletion
Rule for the call: 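About 1500 genes called as lowering calcium entry, by varying amounts, judged against per-plate control wells with STIM1 as positive and Rho1 as negative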
Meaning of the calls: active = called as lowering calcium entry; inactive = not called

| calcium signal, replicate 1 | calcium signal, replicate 2 | call | target gene | amplicon |
| --- | --- | --- | --- | --- |
| 75.2 | 132 | inactive | Alg2 (GeneID 38374) | DRSC08298 |
| 174 | 198 | inactive | CSN5 (GeneID 42000) | DRSC16592 |
| 91.1 | 230 | inactive | CSN5 (GeneID 42000) | DRSC22381 |
| 50.5 | 76.2 | active | eEF1gamma (GeneID 44791) | DRSC16659 |
| 108 | 76.8 | inactive | Cdk8 (GeneID 39157) | DRSC11113 |
| 132 | 177 | inactive | Pex5 (GeneID 31141) | DRSC18552 |
| 109 | 104 | inactive | Panx (GeneID 37434) | DRSC04563 |
| 181 | 79.7 | inactive | Dus3 (GeneID 35264) | DRSC02059 |
| 107 | 148 | inactive | CG7798 (GeneID 36798) | DRSC07047 |
| 72.3 | 133 | active | ND-MNLL (GeneID 31697) | DRSC18159 |
| 236 | 85.7 | inactive | CG11060 (GeneID 35641) | DRSC06029 |
| 105 | 110 | inactive | brn (GeneID 31358) | DRSC18746 |
| 171 | 148 | inactive | EMRE (GeneID 37071) | DRSC06686 |
| 57 | 140 | active | Usp15-31 (GeneID 37954) | DRSC04426 |
| 125 | 231 | inactive | Usp15-31 (GeneID 37954) | DRSC04532 |
| 85.7 | 104 | inactive | Eip63E (GeneID 38433) | DRSC08658 |
| 135 | 110 | inactive | thoc6 (GeneID 39394) | DRSC10528 |
| 75.2 | 73.4 | inactive | Chro (GeneID 40508) | DRSC11630 |
| 81.7 | 115 | inactive | CG34223 (GeneID 5740431) | DRSC05268 |
| 118 | 111 | inactive | UK114 (GeneID 34897) | DRSC01973 |
| 201 | 82.4 | inactive | mRpS29 (GeneID 37563) | DRSC04398 |
| 127 | 133 | inactive | Eglp4 (GeneID 37739) | DRSC04438 |
| 82.9 | 228 | inactive | alpha-Catr (GeneID 49713) | DRSC04669 |
| 133 | 81.8 | inactive | ais (GeneID 39979) | DRSC10523 |
| 121 | 86.3 | inactive | CG3842 (GeneID 31576) | DRSC18326 |
| 154 | 153 | inactive | CG17141 (GeneID 42697) | DRSC15178 |
| 162 | 109 | inactive | CG2247 (GeneID 32111) | DRSC19844 |
| 97.6 | 129 | inactive | Kua (GeneID 35300) | DRSC02100 |
| 82.5 | 107 | inactive | CG17321 (GeneID 35144) | DRSC02598 |
| 86 | 124 | inactive | rdog (GeneID 43450) | DRSC14431 |
| 80 | 110 | inactive | CG14089 (GeneID 40101) | DRSC10093 |
| 82.7 | 88.4 | inactive | CG5543 (GeneID 37768) | DRSC04511 |
| 139 | 153 | inactive | CG13739 (GeneID 35957) | DRSC06410 |
| 96 | 176 | inactive | CG13739 (GeneID 35957) | DRSC23200 |

Laid out differently: 3 of the entries above.
{"target gene": "CSN5 (GeneID 42000)", "amplicon": "DRSC16592", "calcium signal, replicate 1": 174, "calcium signal, replicate 2": 198, "call": "inactive"}
{"target gene": "CSN5 (GeneID 42000)", "amplicon": "DRSC22381", "calcium signal, replicate 1": 91.1, "calcium signal, replicate 2": 230, "call": "inactive"}
{"target gene": "eEF1gamma (GeneID 44791)", "amplicon": "DRSC16659", "calcium signal, replicate 1": 50.5, "calcium signal, replicate 2": 76.2, "call": "active"}
